From patent US7358379B2, “Steroid conjugates, preparation thereof and the use thereof” (Bionature E.A. Limited, priority 2002, dated 2008)

Test system: membrane testosterone receptors in LNCaP cells
Test: Saturation binding of [3H]testosterone to LNCaP cell membranes
Design: species or system human
Description: Cells, cultured in 150 cm^2 flasks without serum, were washed twice with phosphate-buffered saline (PBS), removed by scraping and centrifuged at 1500 rpm. Pelleted cells were homogenized by sonication in 50 mM Tris-HCl buffer pH 7.4 containing freshly added protease inhibitors (10 μg/ml PMSF and 1 μg/ml aprotinin). Unbroken cells were removed by centrifugation at 2500 g for 15 min. Membranes were obtained by centrifugation at 45,000 g for 1 hour, and washed once by the same buffer. Protein concentration was measured by the method of Bradford.
Saturation binding experiments were performed in a final volume of 0.1 ml, containing cell membranes at a final protein concentration of 2 mg/ml and at least 6 different concentrations of [^3H]testosterone (ranging 2-50 nM) without (total binding) or with (non-specific binding) a 100-fold molar excess of unlabelled androgen (DHT). […] In both types of binding experiments, after an overnight incubation at 4° C., bound radioactivity was separated by filtration under reduced pressure through GF/B filters previously soaked in 0.5% polyethylenimine (PEI) in water and rinsed three times with ice-cold Tris-HCl buffer. Filters were mixed with 4 ml scintillation cocktail and the bound radioactivity was counted in a scintillation counter (Tricarb, Series 4000, Packard) with 60% efficiency for Tritium. […]

C[C@]12CC[C@H]3[C@@H](CCC4=CC(=O)CC[C@@]43C)[C@@H]1CC[C@@H]2O [testosterone]
approximate number of sites/cell (LNCaP cells): ~13340 sites/cell | number of binding sites (LNCaP membranes, Scatchard analysis): 144.3 fmoles/mg protein
